{
  "source": "patent US20110212105A1",
  "binders": {"B1": {"name": "human alpha-2 macroglobulin activated by methylamine treatment (ligand)", "chain": "SVSGKPQYMVLVPSLLHTETTEKGCVLLSYLNETVTVSASLESVRGNRSLFTDLEAENDVLHCVAFAVPKSSSNEEVMFLTVQVKGPTQEFKKRTTVMVKNEDSLVFVQTDKSIYKPGQTVKFRVVSMDENFHPLNELIPLVYIQDPKGNRIAQWQSFQLEGGLKQFSFPLSSEPFQGSYKVVVQKKSGGRTEHPFTVEEFVLPKFEVQVTVPKIITILEEEMNVSVCGLYTYGKPVPGHVTVSICRKYSDASDCHGEDSQAFCEKFSGQLNSHGCFYQQVKTKVFQLKRKEYEMKLHTEAQIQEEGTVVELTGRQSSEITRTITKLSFVKVDSHFRQGIPFFGQVRLVDGKGVPIPNKVIFIRGNEANYYSNATTDEHGLVQFSINTTNVMGTSLTVRVNYKDRSPCYGYQWVSEEHEEAHHTAYLVFSPSKSFVHLEPMSHELPCGHTQTVQAHYILNGGTLLGLKKLSFYYLIMAKGGIVRTGTHGLLVKQEDMKGHFSISIPVKSDIAPVARLLIYAVLPTGDVIGDSAKYDVENCLANKVDLSFSPSQSLPASHAHLRVTAAPQSVCALRAVDQSVLLMKPDAELSASSVYNLLPEKDLTGFPGPLNDQDDEDCINRHNVYINGITYTPVSSTNEKDMYSFLEDMGLKAFTNSKIRKPKMCPQLQQYEMHGPEGLRVGFYESDVMGRGHARLVHVEEPHTETVRKYFPETWIWDLVVVNSAGVAEVGVTVPDTITEWKAGAFCLSEDAGLGISSTASLRAFQPFFVELTMPYSVIRGEAFTLKATVLNYLPKCIRVSVQLEASPAFLAVPVEKEQAPHCICANGRQTVSWAVTPKSLGNVNFTVSAEALESQELCGTEVPSVPEHGRKDTVIKPLLVEPEGLEKETTFNSLLCPSGGEVSEELSLKLPPNVVEESARASVSVLGDILGSAMQNTQNLLQMPYGCGEQNMVLFAPNIYVLDYLNETQQLTPEVKSKAIGYLNTGYQRQLNYKHYDGSYSTFGERYGRNQGNTWLTAFVLKTFAQARAYIFIDEAHITQALIWLSQRQKDNGCFRSSGSLLNNAIKGGVEDEVTLSAYITIALLEIPLTVTHPVVRNALFCLESAWKTAQEGDHGSHVYTKALLAYAFALAGNQDKRKEVLKSLNEEAVKKDNSVHWERPQKPKAPVGHFYEPQAPSAEVEMTSYVLLAYLTAQPAPTSEDLTSATNIVKWITKQQNAQGGFSSTQDTVVALHALSKYGAATFTRTGKAAQVTIQSSGTFSSKFQVDNNNRLLLQQVSLPELPGEYSMKVTGEGCVYLQTSLKYNILPEKEEFPFALGVQTLPQTCDEPKAHTSFQISLSVSYTGSRSASNMAIVDVKMVSGFIPLKPTVKMLERSNHVSRTEVSSNHVLIYLDKVSNQTLSLFFTVLQDVPVRDLKPAIVKVYDYYETDEFAIAEYNAPCSKDLGNA"}},
  "molecular_target": "α-chain of the A2MR receptor purified from human plasma (soluble A2MR) (human)",
  "assay": "affinity chromatography of plasma fractions on immobilized MeNH2_A2M; washed with 0.5 M NaCl, A2MR eluted with EDTA at pH 6",
  "note": "Results are given in words; binding and its absence hold for the method and conditions named. Binding calls can cover weak binding; strength is not graded here.",
  "data": [
    {"binder": "B1", "values": [
      {"measurement": "binding", "result": "binds"}
    ]}
  ]
}
